# The supplement of paper PMC12889115
# This is one part of the list. These are raw signals, not scaled to a control.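 In the initial screen, polymyxin B was used at a concentration that permeabilizes Salmonella's outer membrane but not its inner membrane. Maximum growth was set by DMSO wells with or without polymyxin B. Since plates varied, data were ranked per plate, and compounds giving the lowest OD600 advanced as hits.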
# Test system: Salmonella enterica serovar Typhimurium SL1344
# Experiment: bacterial growth OD600 after 18 h with compound and polymyxin B; higher = more bacterial growth (less inhibition)
# Settings: 50 µM, Mueller-Hinton broth
Structure (SMILES),bacterial growth OD600 (polymyxin B 1 µg/mL),bacterial growth OD600 (polymyxin B 0.75 µg/mL)
Cc1ccoc1C(=O)NC1CC(=O)N(C2CCCCCC2)C1 (stereo not given),0.917,
CCCc1cc(CNC(=O)c2ccc(NC)nc2)on1,0.94,
CC#CCN(Cc1ccco1)Cc1c[nH]nc1-c1ccc(OC)cc1F,0.977,
O=C(CCC1CCN(C(=O)c2ccoc2)CC1)N1CCC(Cc2ccccc2)CC1,1.05,
COc1cccc(CCNC(=O)c2ccc(OC3CCN(C(C)=O)CC3)c(OC)c2)c1,0.984,
CCN(CC)CCN(CC)C(=O)CCc1nnc(CCc2ccccc2OC)o1,1.08,
CCOC(=O)C1(Cc2cccc(OC)c2)CCCN(S(=O)(=O)Cc2ccccc2)C1 (stereo not given),0.555,
Cc1c(CN2CCOc3ccc(CN4CCC(OCc5ccccc5)CC4)cc3C2)cnn1C,,0.803
O=C(Nc1ccc(Oc2ccccc2)nc1)C1CCN(CC2CC2)CC1,,0.84
COCc1noc(-c2ccc(N3CCCC3c3nccs3)nc2)n1 (stereo not given),0.005,
Cc1c(-c2ccc(F)cc2)[nH]c2ccc(CNC(C)CO)cc12 (stereo not given),0.715,
O=C(NC1CCCN(C2CCCCCC2)C1)c1ccc(Cn2cnnn2)cc1 (stereo not given),1.08,
Cc1nc(C(=O)N2CCC(CCC(=O)N3CCC(Cc4ccccc4)CC3)CC2)cs1,0.884,
CCC(CC)NC(=O)C1CCC(=O)N(CCc2ccc(Cl)cc2)C1 (stereo not given),0.9,
O=C(NC1CCc2ccccc21)c1ccc(OC2CCN(C(=O)C3CC3)CC2)cc1 (stereo not given),0.569,
CN1C(=O)CC(CC(=O)N2CCC[C@H]2CO)(c2ccc(-c3ccccc3)cc2)C1=O (stereo not given in full),,0.742
Cc1nc(N2CCCC(NCc3cc(F)ccc3F)CC2)nc2ccc(F)cc12 (stereo not given),,0.698
CC(C)CCC(=O)N1CCC2(CCCN(Cc3cccc(F)c3F)C2=O)C1 (stereo not given),0.505,
Cc1ccoc1C(=O)N1CCc2[nH]nc(-c3ccc(Cl)cc3)c2C1,,0.026
COc1cccc(CC2(CO)CCCN(Cc3ccc4c(c3)OCCO4)C2)c1 (stereo not given),0.831,

# Three compounds out of the list, sorted by count of non-hydrogen atoms, largest number first:
Structure (SMILES),bacterial growth OD600 (polymyxin B 1 µg/mL),bacterial growth OD600 (polymyxin B 0.75 µg/mL)
O=C(NC1CCc2ccccc21)c1ccc(OC2CCN(C(=O)C3CC3)CC2)cc1 (stereo not given),0.569,
Cc1nc(N2CCCC(NCc3cc(F)ccc3F)CC2)nc2ccc(F)cc12 (stereo not given),,0.698
CC(C)CCC(=O)N1CCC2(CCCN(Cc3cccc(F)c3F)C2=O)C1 (stereo not given),0.505,
